Laboratory results reported in the supplement of paper PMC10849652.
The other results are listed elsewhere or left out.

By UniProt entry, the sequences of proteins in these tests, tags left out. Where a name states a change or a piece, a line headed by the entry shows the natural chain unless it says otherwise.
UniProt Q9H1C7: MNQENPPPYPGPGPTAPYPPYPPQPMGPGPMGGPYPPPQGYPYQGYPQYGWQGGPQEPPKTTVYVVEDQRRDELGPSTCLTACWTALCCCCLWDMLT
UniProt P00167, whole entry, looked up: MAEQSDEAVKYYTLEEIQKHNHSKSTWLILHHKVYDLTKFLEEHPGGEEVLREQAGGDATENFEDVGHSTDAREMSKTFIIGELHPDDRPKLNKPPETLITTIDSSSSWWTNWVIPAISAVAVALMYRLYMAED
UniProt Q96GG9: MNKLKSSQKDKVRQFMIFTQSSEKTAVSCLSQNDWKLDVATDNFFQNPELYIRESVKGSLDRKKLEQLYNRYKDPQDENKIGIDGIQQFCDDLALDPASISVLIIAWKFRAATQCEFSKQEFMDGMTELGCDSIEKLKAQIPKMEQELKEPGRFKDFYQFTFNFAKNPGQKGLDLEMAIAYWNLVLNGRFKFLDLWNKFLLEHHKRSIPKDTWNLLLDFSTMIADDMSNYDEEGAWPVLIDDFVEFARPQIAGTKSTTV
UniProt Q58WW2: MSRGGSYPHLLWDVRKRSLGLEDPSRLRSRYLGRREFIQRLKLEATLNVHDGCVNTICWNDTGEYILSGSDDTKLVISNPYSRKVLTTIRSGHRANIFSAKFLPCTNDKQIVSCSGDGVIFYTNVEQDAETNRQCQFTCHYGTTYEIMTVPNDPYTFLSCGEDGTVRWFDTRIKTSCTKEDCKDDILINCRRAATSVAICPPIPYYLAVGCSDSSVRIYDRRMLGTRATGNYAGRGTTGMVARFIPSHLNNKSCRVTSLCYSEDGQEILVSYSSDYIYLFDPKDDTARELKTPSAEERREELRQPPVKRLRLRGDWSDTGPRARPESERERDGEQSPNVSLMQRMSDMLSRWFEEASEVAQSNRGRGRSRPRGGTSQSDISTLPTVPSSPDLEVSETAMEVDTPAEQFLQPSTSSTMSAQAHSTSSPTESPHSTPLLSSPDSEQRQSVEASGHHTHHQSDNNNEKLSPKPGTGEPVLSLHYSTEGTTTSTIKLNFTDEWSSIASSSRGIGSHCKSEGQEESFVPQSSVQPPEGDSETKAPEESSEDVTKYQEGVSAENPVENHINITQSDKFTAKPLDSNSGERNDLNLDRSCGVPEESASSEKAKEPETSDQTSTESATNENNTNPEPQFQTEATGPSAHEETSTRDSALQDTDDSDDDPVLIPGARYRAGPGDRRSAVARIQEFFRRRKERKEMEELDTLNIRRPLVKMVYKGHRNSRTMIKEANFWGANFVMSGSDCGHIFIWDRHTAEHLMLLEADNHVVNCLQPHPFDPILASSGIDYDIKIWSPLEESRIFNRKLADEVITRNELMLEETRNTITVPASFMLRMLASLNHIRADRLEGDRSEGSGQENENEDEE
UniProt Q9UJU6: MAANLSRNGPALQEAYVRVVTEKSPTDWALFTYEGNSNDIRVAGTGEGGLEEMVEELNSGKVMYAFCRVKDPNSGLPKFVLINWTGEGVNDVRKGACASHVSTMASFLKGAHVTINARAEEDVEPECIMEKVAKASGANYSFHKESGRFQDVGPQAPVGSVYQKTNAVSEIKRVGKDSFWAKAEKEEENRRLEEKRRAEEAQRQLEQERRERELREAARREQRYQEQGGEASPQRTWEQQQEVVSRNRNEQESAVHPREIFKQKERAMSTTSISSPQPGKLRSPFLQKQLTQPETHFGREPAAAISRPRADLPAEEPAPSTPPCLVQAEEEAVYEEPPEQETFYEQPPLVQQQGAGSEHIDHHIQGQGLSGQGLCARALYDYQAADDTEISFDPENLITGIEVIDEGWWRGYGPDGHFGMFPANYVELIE
UniProt Q9UBR2: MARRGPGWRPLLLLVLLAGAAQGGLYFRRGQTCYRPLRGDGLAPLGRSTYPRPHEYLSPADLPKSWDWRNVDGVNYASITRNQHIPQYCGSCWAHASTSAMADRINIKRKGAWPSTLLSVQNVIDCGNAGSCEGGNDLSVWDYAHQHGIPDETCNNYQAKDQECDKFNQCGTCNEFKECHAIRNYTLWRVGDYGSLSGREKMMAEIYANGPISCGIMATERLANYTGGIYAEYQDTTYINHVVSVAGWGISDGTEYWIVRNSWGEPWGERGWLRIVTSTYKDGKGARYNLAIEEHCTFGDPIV
UniProt Q14203, whole entry, looked up: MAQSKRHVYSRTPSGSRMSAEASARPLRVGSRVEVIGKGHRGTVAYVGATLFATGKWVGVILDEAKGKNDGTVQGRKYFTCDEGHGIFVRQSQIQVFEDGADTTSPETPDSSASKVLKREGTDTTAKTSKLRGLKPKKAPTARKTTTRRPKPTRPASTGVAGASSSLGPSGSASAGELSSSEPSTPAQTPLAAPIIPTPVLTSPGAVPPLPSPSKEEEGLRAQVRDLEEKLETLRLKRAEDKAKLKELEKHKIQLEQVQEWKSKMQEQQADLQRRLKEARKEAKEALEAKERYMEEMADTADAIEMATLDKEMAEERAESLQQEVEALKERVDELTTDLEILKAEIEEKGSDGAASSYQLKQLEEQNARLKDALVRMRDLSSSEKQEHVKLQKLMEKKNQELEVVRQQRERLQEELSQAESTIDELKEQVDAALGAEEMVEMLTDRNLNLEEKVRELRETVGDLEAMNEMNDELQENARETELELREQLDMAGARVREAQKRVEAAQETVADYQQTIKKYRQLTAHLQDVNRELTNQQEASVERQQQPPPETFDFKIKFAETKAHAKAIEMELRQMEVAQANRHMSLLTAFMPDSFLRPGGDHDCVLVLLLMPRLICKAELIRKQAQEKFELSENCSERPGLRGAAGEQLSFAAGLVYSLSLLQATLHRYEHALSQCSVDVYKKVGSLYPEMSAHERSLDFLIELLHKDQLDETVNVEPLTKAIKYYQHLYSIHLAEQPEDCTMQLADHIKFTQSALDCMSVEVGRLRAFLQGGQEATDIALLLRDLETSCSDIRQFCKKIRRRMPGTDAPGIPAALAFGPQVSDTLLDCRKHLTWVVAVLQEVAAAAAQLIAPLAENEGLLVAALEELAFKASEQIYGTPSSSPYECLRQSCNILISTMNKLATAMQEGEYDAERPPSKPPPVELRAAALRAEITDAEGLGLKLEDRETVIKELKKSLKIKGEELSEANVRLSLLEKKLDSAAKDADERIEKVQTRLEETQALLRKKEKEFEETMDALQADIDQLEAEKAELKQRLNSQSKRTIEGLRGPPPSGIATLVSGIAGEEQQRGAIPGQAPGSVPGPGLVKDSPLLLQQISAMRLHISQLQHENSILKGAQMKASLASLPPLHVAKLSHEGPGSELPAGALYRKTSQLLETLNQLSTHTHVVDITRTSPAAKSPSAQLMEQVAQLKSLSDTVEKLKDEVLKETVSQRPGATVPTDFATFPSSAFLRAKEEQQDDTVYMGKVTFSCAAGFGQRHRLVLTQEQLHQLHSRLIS
UniProt P25774, whole entry, looked up: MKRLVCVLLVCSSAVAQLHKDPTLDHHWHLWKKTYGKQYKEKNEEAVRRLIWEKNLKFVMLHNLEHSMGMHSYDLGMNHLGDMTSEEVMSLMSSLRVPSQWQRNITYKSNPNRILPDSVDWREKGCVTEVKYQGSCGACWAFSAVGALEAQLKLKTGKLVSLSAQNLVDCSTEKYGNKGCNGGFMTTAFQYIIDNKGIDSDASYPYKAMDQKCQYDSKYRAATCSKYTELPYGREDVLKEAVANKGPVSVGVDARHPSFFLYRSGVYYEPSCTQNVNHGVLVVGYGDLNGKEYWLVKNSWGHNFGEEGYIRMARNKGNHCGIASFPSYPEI
UniProt P13498: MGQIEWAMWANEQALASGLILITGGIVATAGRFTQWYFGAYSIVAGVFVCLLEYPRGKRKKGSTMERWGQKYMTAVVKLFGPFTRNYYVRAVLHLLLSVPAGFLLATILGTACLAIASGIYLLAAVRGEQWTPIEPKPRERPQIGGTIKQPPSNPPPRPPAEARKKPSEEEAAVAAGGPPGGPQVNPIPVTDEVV
UniProt Q8WUE5: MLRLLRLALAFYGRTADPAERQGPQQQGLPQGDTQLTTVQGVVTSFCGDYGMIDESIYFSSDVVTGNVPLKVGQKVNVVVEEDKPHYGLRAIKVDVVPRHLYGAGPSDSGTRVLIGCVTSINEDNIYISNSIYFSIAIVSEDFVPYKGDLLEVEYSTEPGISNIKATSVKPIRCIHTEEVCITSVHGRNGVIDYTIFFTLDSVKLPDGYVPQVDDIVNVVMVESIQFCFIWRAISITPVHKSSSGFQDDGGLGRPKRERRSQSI
UniProt Q9NV06: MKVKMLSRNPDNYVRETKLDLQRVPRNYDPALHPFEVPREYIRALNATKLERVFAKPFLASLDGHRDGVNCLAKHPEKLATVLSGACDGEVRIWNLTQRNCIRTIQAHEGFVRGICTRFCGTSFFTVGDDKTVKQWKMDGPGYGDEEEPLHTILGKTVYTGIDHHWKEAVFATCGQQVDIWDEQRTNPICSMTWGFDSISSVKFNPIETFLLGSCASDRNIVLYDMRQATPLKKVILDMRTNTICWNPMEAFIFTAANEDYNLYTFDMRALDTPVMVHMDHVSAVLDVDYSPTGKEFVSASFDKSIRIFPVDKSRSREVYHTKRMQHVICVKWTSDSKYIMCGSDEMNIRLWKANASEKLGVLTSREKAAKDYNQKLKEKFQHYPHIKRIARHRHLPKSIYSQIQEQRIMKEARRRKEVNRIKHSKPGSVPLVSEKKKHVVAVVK
UniProt Q8NBI2: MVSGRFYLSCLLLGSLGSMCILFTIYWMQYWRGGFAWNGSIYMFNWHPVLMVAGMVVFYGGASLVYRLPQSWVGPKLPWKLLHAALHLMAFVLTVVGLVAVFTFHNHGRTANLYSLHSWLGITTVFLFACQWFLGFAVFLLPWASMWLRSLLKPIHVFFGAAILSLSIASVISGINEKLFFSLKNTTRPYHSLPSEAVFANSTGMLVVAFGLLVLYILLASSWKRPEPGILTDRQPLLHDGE
UniProt P11182, whole entry, looked up: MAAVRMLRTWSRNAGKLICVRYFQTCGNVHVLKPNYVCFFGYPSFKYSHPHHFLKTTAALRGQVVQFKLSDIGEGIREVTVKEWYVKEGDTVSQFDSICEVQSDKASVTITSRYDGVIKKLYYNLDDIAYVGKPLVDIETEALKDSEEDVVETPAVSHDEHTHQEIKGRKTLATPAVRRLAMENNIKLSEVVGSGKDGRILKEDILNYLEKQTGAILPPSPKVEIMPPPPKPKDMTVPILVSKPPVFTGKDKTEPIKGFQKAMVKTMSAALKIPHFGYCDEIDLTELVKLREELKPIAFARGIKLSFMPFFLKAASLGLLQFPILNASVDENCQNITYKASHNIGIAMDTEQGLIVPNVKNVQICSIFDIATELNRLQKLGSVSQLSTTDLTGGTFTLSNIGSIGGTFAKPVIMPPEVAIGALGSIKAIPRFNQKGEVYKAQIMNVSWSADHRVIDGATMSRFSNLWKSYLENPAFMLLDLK
UniProt Q2TBE0: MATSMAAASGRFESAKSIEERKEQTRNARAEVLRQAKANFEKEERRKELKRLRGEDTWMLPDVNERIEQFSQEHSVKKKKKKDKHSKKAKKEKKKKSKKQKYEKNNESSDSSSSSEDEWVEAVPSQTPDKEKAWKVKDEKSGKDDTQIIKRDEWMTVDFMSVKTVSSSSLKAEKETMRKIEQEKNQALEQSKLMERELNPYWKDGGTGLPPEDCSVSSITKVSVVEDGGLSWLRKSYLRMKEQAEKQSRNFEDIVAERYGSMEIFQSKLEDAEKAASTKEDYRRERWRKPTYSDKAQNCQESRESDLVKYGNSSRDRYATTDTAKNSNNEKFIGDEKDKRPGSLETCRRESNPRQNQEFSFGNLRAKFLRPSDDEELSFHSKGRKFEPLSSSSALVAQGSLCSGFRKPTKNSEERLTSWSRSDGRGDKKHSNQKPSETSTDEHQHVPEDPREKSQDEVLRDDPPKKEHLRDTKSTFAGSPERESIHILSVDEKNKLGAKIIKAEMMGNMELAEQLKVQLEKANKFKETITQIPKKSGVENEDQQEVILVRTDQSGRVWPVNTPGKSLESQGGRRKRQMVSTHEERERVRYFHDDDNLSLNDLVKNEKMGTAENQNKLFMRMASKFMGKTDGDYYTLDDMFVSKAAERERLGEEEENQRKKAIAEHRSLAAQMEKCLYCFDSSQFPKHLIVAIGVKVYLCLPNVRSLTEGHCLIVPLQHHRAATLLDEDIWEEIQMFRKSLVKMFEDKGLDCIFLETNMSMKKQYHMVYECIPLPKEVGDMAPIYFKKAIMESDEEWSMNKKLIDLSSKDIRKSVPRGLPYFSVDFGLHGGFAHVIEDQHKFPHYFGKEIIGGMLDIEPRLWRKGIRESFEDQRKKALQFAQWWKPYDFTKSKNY
UniProt P09668: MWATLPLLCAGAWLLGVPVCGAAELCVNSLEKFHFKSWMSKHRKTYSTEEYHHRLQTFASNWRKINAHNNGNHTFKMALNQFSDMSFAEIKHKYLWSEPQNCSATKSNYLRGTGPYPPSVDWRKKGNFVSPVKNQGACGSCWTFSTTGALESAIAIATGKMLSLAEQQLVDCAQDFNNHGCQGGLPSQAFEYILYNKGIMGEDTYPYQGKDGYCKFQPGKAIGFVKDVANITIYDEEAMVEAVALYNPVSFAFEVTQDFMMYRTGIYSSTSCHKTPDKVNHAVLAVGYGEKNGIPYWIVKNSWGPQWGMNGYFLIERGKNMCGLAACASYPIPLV

These targets were tested with CN1C2=C(C3=C1C(=O)N(N=C3)CC4=CC(=CC=C4)N)SC(=C2)S(=O)C (assay: log2 fold change, soluble protein after heating vs DMSO (PISA); higher = thermal stabilisation; K562 cells, 10 uM, 30 min; active = over 0.2 and 3.5 SD of the protein, either way, in both replicates (recomputed)).
Method in brief: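 K562 cells at 2×10^6 cells/mL were given 10 μM compound for 30 min. Aliquots then went through 3 min of heating across 48°C-58°C, were pooled, and were extracted in PBS with 0.5% NP-40 at 4°C, and the supernatant after 21,000xg for 90 min was quantified by TMTpro 16plex LC-MS/MS with channel sums equalised. Thermal stability relative to control samples, from duplicates, is given as log2 fold change.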

log2 fold change, inactive:
DCTN5 (UniProt Q9BTE1) 0.011
CTU1 (UniProt Q7Z7A3) -0.098
CYSTM1 (UniProt Q9H1C7) 0.17
DCAF4 (UniProt Q8WV16) 0.128
CYB5A (UniProt P00167) 0
DCUN1D1 (UniProt Q96GG9) -0.056
CYP46A1 (UniProt Q9Y6A2) 0.04
DCAF6 isoform 3 (UniProt Q58WW2) 0.006
DCAF4L2 (UniProt Q8NA75) 0.03
CTR9 (UniProt Q6PD62) 0.164
DBNL isoform 3 (UniProt Q9UJU6) -0.075
CTSZ (UniProt Q9UBR2) -0.087
DCTN1 isoform 4 (UniProt Q14203) 0.149
CTSS (UniProt P25774) 0.051
CYBA (UniProt P13498) -0.064
CT55 (UniProt Q8WUE5) -0.082
DCAF13 (UniProt Q9NV06) 0.195
CYB561A3 isoform 2 (UniProt Q8NBI2) -0.021
DBT (UniProt P11182) 0.015
CWF19L2 (UniProt Q2TBE0) 0.231
DBN1 isoform 3 (UniProt Q16643) 0.05
CTSH (UniProt P09668) -0.008
DCP2 (UniProt Q8IU60) 0.319

Two entries drawn at random from those above, as already listed:
log2 fold change, inactive:
DCUN1D1 (UniProt Q96GG9) -0.056
CTSS (UniProt P25774) 0.051
